# Read-outs that look alike come from different tables or passages of the source.
# Assays:
# T. gondii tachyzoites = assay: T. gondii tachyzoite proliferation assay in HS68 cells (tachyzoite count); assay type: cell-based; conditions: Toxoplasma gondii
# Procedure: Parasite propagation—The RH strain of Toxoplasma gondii was grown in BM bovine macrophage cells or HS68 human foreskin fibroblast cells obtained from the American Type Culture Collection (Rockville, Md.). HS68 cells were grown in RPMI 1640 medium (Mediatech, Inc., Herndon, Va.) plus 10% fetal bovine serum (Atlanta Biologicals, Lawrenceville, Ga.), 1 mM sodium pyruvate and 100 U/ml each of penicillin and streptomycin. Parasites were harvested from infected cultures of HS68 cells growing in T-75 cm^2 flasks. After removing the culture medium, the cells were scraped into 5 ml of phosphate-buffered saline and a cell lysate obtained by passing through a 26-gauge needle. To purify the parasites, the cell lysate was filtered through a 3 micron (micrometer) filter.
# Proliferation assays: HS68 cells were replica plated in 48-well dishes, and grown to confluence prior to infection with 5-10×10^4 freshly purified T. gondii tachyzoites/well. […] The tachyzoites were resuspended in 100 ul of phosphate-buffered saline, and duplicate aliquots were counted using a hemocytometer. […] The minimum inhibitory concentration (MIC) of compounds that suppressed Toxoplasma-induced lysis of the HS68 cells was determined visually by counting the number of plaques/well in the monolayer.
# T. gondii = assay: Plaque suppression / protection of HS68 monolayer from T. gondii; assay type: cell-based, Toxoplasma gondii; conditions: MIC plaque suppression relative to IC50 tachyzoite count
# Procedure: Proliferation assays: HS68 cells were replica plated in 48-well dishes, and grown to confluence prior to infection with 5-10×10^4 freshly purified T. gondii tachyzoites/well. After 2 hours, the media and non-infective tachyzoites were removed, and replaced with RPMI medium containing 2% fetal bovine serum plus 1 mM sodium pyruvate, penicillin (100 U), streptomycin (100 U) and test agent or a vehicle control. The proliferation assays were terminated 48-72 hours post-infection when the untreated cells were heavily infected. All of the culture media were removed from the wells, and the tachyzoites in the media were fixed by dilution (1:1) into phosphate-buffered saline containing 10% formaldehyde. The tachyzoites were collected by brief centrifugation (30 seconds, […]) at room temperature using a tabletop microfuge. The tachyzoites were resuspended in 100 ul of phosphate-buffered saline, and duplicate aliquots were counted using a hemocytometer. IC50 values, the concentrations of inhibitors necessary to decrease the number of tachyzoites in the medium by 50%, were determined for each experiment using Prism GraphPad version 4.0 to fit the concentration-response data to a sigmoidal curve. […] The minimum inhibitory concentration (MIC) of compounds that suppressed Toxoplasma-induced lysis of the HS68 cells was determined visually by counting the number of plaques/well in the monolayer.
# [1] = tested on: MCF-7 human breast cancer cells; assay: ESR free radical (ROS) measurement in MCF-7 cell suspensions with DMPO; assay type: cell-based; conditions: 200 nM, 1×10^6 MCF-7 cells, 5 min at 37° C.
# Procedure: Free Radical Measurements: All ESR measurements were conducted using a Bruker EMIR spectrometer (Bruker Instruments Inc., Billerica, Mass.) and a flat-cell assembly. Hyperfine couplings were measured (to 0.1 G) directly from magnetic field separation using potassium tetraperoxochromate (K3CrO8) and 1,1-diphenyl-2-picrylhydrazyl as reference standards. The relative radical concentration was estimated by multiplying half of the peak height by (ΔHpp)^2, where (ΔHpp) represents peak-to-peak width. The Acquisit program was used for data acquisitions and analyses. MCF-7 cells (2.0×10^6 cells/60-mm^2 dish) were harvested 48 h after plating by trypsinization and collected at room temperature by centnfugation (225 g, 5 min). Cells were washed once with ice-cold PBS and resuspended in ice-cold PBS at 2×10^6 cells/ml. Radical production was measured in the presence of the spin trap 5,5-dimethyl-1-pyrroline-N-oxide (DMPO; Aldrich Chemical Co., Milwaukee, Wis.). DMPO (200 mM) and 1×10^6 cells test agents were mixed in 1.0 ml of PBS, incubated at 37° C. for 5 mm, and then transferred to a flat cell for ESR measurements.
compound,measurement,setting,value
"O=C(CCCCCCC(=O)Nc1ccccc1)NO [SAHA, suberoylanilide hydroxamic acid]",IC50,"T. gondii tachyzoites; RH strain T. gondii in HS68 cells, 48-well plate, 48-72 hours post-infection, mean+/-SEM, read-out: IC50 (uM) Tachyzoite Count",0.083 ± 0.04 µM
same,IC50,"T. gondii tachyzoites; RH strain in HS68 cells, average of independent experiments, read-out: IC50 T. gondii tachyzoites",0.083 µM
same,MIC IC50 (ratio MIC/IC50),T. gondii,4.8
same,"relative peak heights of the ESR signals (mean±range, n=2)",[1],98 mm

# Reference: US20100226857A1, “TUMOR CELL DIFFERENTIATION AGENTS AS CHEMICAL INHIBITORS AND TREATMENTS FOR INTRACELLULAR PARASITES” (priority 2006, published 2010)
